Data published in patent publication US20260041706A1, “MUCUS MEMBRANE FORMULATIONS AND USES THEREOF” (priority 2022, published 2026).
“And” between values parts separate entries of the source, which are not always exact repeats. Identical values can stand only once. Some entries share one result that the patent states for a list of compounds.

Experiments:
[1] = test system: HKx31 Influenza A virus (H3N2); experiment: In vitro neutralization assay with Influenza A (plaque assay in MDCK cells); assay type: cell-based; conditions: 10 or 60 min incubation; agent evaluated individually
[2] = surfactant combined with gellan/pectin mixture; vs mucus or only biopolymer mixture

Molecule | reduction in IAV viral titer in host cells in comparison to PBS [1] | surfactant concentration above which fluorescence intensity (droplet capture) increased significantly [2]
OCCc1ccccc1 [phenethyl alcohol] | less than 1 log fold and < 90% | –
polyoxyethylene 20 sorbitan monolaurate [Tween-20] | – | higher than 0.005 % w/v
polyoxyethylene 20 sorbitan monooleate [Tween-80] | – | higher than 0.005 % w/v
